# PubChem BioAssay AID651640 (Broad Institute, 2012)
# Values joined by “and” are separate entries in the source; they are usually repeats but may differ in a detail not shown here. Identical values can stand only once. The campaign covered roughly 350,000 compounds. About 6,000 (1.7%) were called active. Inconclusive means that the source gave no clear call. Such entries were picked first, then a sample of the others. Cut-off read from the data, not from the text of the source: active = CPE inhibition above about 20% (passing the limit was not always enough); inconclusive = no clear call, values can overlap the other calls; tested in BHK-21 cells.
# Assay: protection of cells from dengue 2 killing – plate reader, single concentration, primary screen (AID 651640);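 note: 0% = median of neutral control wells and 100% = median of positive control wells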
# Conditions: DENV2-infected cells, cytopathic effect rescue, at 9.99 µM, hits give high values
row,Structure (SMILES),CPE inhibition
1,C[C@H](CO)N1C[C@H](C)[C@H](CN(C)CC2CCOCC2)Oc2ncc(-c3cccc(F)c3)cc2C1=O,inactive: 1.23%
2,CC(C)N1CCN(CC2COc3ccccc3O2)CC1 (stereo unspecified),inconclusive: 23.3%
3,COc1ccc2c3c(n(C)c2c1)[C@H](CO)N(C)CC31CN(S(C)(=O)=O)C1,active: 22.6%
4,COc1ccc(NC(=O)N(C)C[C@@H]2Oc3c(NC(=O)c4nc5ccccc5s4)cccc3C(=O)N([C@@H](C)CO)C[C@H]2C)cc1,inconclusive: 41.6%
5,CO[C@@H]1CN(C)C(=O)c2ccc(NC(=O)C3CCOCC3)cc2OC[C@@H](C)N(C(=O)c2ccccc2)C[C@@H]1C,inconclusive: 54.5%
6,N#C[C@H]1[C@H](c2ccc(C#Cc3ccccc3F)cc2)[C@H](CO)N1C(=O)C1CC1,active: 30.2%
7,C[C@@H]1CN([C@@H](C)CO)C(=O)Cc2cc(NC(=O)Nc3cccc4ccccc34)ccc2O[C@H]1CN(C)C(=O)NC1CCCCC1,active: 25.2%
8,COc1cc(/C=C/C(=O)N2CC(C)OC(C)C2)cc(OC)c1OC (stereo unspecified),inconclusive: 40.4%
9,C[C@H](CO)N1C[C@H](C)[C@@H](CN(C)C(=O)C2CC2)Oc2ncc(C#CC3CCCC3)cc2C1=O,active: 25.3%
10,COc1cccc(C(=O)NCCSCc2ccccc2Cl)c1,inconclusive: 38.1%
11,COc1ccc2c3c([nH]c2c1)[C@H](CO)N(C(=O)C1CCCC1)CC31CN(S(C)(=O)=O)C1,inactive: 14.1%
12,CC(=O)N1[C@@H]2c3cccc(=O)n3C[C@@H]2[C@@H](CO)[C@@H]1C(=O)NCc1ccc(F)cc1,inconclusive: 35.8%
13,N#Cc1ccccc1Oc1ccc(S(=O)(=O)N2CCCCC2)cn1,inconclusive: 53.5%
14,C[C@@H]1CN([C@H](C)CO)C(=O)c2cc(NS(=O)(=O)c3ccc(F)cc3)ccc2O[C@@H](C)CCCCO[C@@H]1CN(C)S(=O)(=O)c1cccs1,inactive: -6.96%
15,Cc1noc(C)c1S(=O)(=O)Nc1ccc2c(c1)C(=O)N([C@@H](C)CO)C[C@H](C)[C@H](CN(C)C(=O)Nc1ccc(C(F)(F)F)cc1)OCCCC[C@H](C)O2,inconclusive: 20.5%
16,C[C@@H]1CN([C@@H](C)CO)C(=O)Cc2cc(NC(=O)NC3CCCCC3)ccc2O[C@@H]1CN(C)Cc1ccc(Cl)c(Cl)c1,active: 58.9%
17,C[C@H](CO)N1C[C@H](C)[C@@H](CN(C)C)Oc2c(NC(=O)C3CCOCC3)cccc2C1=O,active: 40.3%
18,O=C(C[C@@H]1CC[C@H](NC(=O)Nc2cccc(F)c2)[C@@H](CO)O1)NCC1CC1,inactive: -0.653%
19,COCCNC(=O)C[C@@H]1CC[C@H]2[C@@H](COC[C@@H](O)CN2Cc2ccc(Cl)c(Cl)c2)O1,inconclusive: 48.1%
20,CCCn1nnnc1NC(=O)c1ccc(C)cc1Cl,inconclusive: 25%
21,COc1cc(C)ccc1S(=O)(=O)NC(=O)C1(C)CCN1C(=O)Cc1ccc(C(C)(C)C)cc1 (stereo unspecified),inconclusive: 23%
22,CC(=O)Nc1ccc(NC(=O)CSc2nnc(NC(=O)C3CC3)s2)cc1,inconclusive: 27.7%
23,CCNC(=O)C[C@@H]1CC[C@@H]2[C@@H](COc3ccc(NC(=O)Nc4cccc(C)c4)cc3C(=O)N2C)O1,inconclusive: 65.4%
24,COC(=O)C(CC#Cc1ccc2c(c1)[C@]1(C(=O)N2)[C@H](C(=O)N2CCN(c3ncccn3)CC2)[C@H]2C(=O)O[C@H](c3ccccc3)[C@H](c3ccccc3)N2[C@@H]1c1ccc(O)cc1)C(=O)OC,inactive: 1.84%

row,Structure (SMILES),CPE inhibition
1,C[C@@H]1CN([C@@H](C)CO)C(=O)Cc2cc(NC(=O)c3ccncc3)ccc2O[C@@H]1CN(C)C(=O)Nc1cccc2ccccc12,inactive: -8.63%
2,COc1ccc2c(CN3CCN(C(C)=O)CC3)cc(=O)oc2c1,inconclusive: 22.6%
3,S=C(NCCCN1CCOCC1)N1CCN(c2nc(-c3ccccc3)cs2)CC1,inconclusive: 24.1%
4,Cc1c(C(=O)O)sc(S(=O)(=O)N2CCN(C(=O)Cc3ccc(Cl)cc3)CC2)c1C(=O)O,inconclusive: 34.4%
5,CCOc1ccc(NC(=O)C2CCCN(c3c(CC)c(C)nc4ncnn34)C2)cc1 (stereo unspecified),inconclusive: 25.5%
6,C[C@@H]1CN([C@H](C)CO)C(=O)c2ccccc2-c2ccccc2CO[C@H]1CN(C)C(=O)Nc1ccc(F)cc1,inactive: 4.28%
7,C[C@H]1CN([C@@H](C)CO)C(=O)c2cc(NC(=O)Cn3cnnn3)ccc2O[C@H]1CN(C)Cc1ccc(C(=O)Nc2ccccc2N)cc1,active: 43.3%
8,O=S(=O)(NC(=NCc1ccccc1)c1ccccc1F)c1ccccc1,inconclusive: 32.8%
9,C[C@H](CO)N1C[C@H](C)[C@@H](CN(C)C(=O)Nc2ccc(F)cc2)Oc2ccc(NC(=O)Cc3ccccc3)cc2C1=O,inconclusive: 36.3%
10,CC(=O)Nc1ccc(NC(=O)C(C)OC(=O)C2CCN(S(=O)(=O)c3ccccc3C(F)(F)F)CC2)cc1 (stereo unspecified),inactive: -7.57%
11,COc1ccccc1NC(=O)COc1ccc2ccccc2c1,inactive: -11.8%
12,CCOC(=O)c1sc(-c2ccc(Cl)cc2Cl)nc1O,inactive: 0.392%
13,O=C(c1ccc(F)cc1)N1CC(=O)N2[C@H](CO)[C@H](c3ccc(C#CC4CCCCC4)cc3)[C@H]2C1,inconclusive: 21.1%
14,COCCNC(=O)C[C@@H]1C=C[C@H](NS(=O)(=O)c2ccc(C)cc2)[C@H](CO)O1,inactive: -4.47%
15,CCC(=O)N1CC[C@@H]2[C@H]1c1cc(-c3ccc(F)cc3)ccc1N[C@@H]2CO,inconclusive: 21.1%
16,COC(=O)c1sccc1Oc1ccc(Cl)cc1N1C(=O)CCC1=O,inconclusive: 42.8%
17,O=C1c2cccc3c([N+](=O)[O-])ccc(c23)C(=O)N1Cc1cccnc1,inactive: 3.15%
18,CCOC(=O)c1cc(-c2ccccc2)nn1CC1CC(c2cccnc2)=NO1 (stereo unspecified),inconclusive: 92.4%
19,COc1cc(-c2nc(C)c(C(C)=O)n2O)ccc1OCC(=O)Nc1ccc(Cl)cc1,inconclusive: 20%
20,CC(C)NC(=O)Nc1ccc2c(c1)C(=O)N([C@@H](C)CO)C[C@@H](C)[C@H](CN(C)CC1CCCCC1)OCCCC[C@H](C)O2,inconclusive: 35.5%
21,C[C@@H]1CCCCO[C@H](CN(C)CC2CCCCC2)[C@@H](C)CN([C@H](C)CO)C(=O)c2cc(NC(=O)CCC(F)(F)F)ccc2O1,active: 52.2%
22,CCC1=Nc2cc(C(=O)NCc3ccco3)ccc2Sc2ccc(C)cc21,inconclusive: 21.1%
23,Cc1ccc2nsnc2c1NC(=O)c1cncc(Br)c1,inconclusive: 34.6%
24,Cc1cc(C)nc(SCc2cn3c(C)cc(C)nc3n2)n1,inconclusive: 32.8%

row,Structure (SMILES),CPE inhibition
1,CCCc1nc(SCC(=O)O)c2sc(=S)n(-c3ccccc3)c2n1,inconclusive: 34.3%
2,CC1CCCN(C(=O)Cn2c(=O)oc3cc(S(=O)(=O)N4CCCCC4)ccc32)C1 (stereo unspecified),inconclusive: 20.8%
3,COC(=O)C[C@@H]1CC[C@H]2[C@H](COc3ccc(NS(=O)(=O)c4cccc(F)c4)cc3C(=O)N2C)O1,inactive: -5.88%
4,Cc1ccccc1C(=O)NNC(=O)c1cc(S(=O)(=O)N2CCOCC2)ccc1C,inactive: 3.3%
5,C/C=C/c1ccc([C@H]2[C@@H](CO)N(S(=O)(=O)CC)[C@@H]2CN(C)C(=O)CC)cc1,inconclusive: 51.9%
6,C=CC[C@@H](CC(=O)N[C@H](CO)Cc1ccccc1)C(=O)N[C@H](C)COC(=O)[C@@H](CC=C)Cc1ccc(F)cc1,inconclusive: 29.2%
7,c1ccc(CNCCC(Cc2ccccc2)c2ccco2)cc1 (stereo unspecified),inactive: -1.07%
8,CC(C)NC(=O)N1[C@H](CO)[C@H]2c3ccccc3N(C(=O)Nc3ccccc3)C[C@H]21,active: 20.5%
9,Cc1ccccc1-c1ccc2c(c1)O[C@H](CN(C)Cc1ccncc1)[C@H](C)CN([C@H](C)CO)S2(=O)=O,inconclusive: 51%
10,C[C@@H]1CN([C@H](C)CO)C(=O)CCCn2nncc2CO[C@@H]1CN(C)S(=O)(=O)c1ccc2ccccc2c1,inactive: -4.03% and inactive: -6.67% and inactive: -4.23%
11,CN1CCN(C(=O)c2ccc(CNS(=O)(=O)c3cccc(Cl)c3)cc2)CC1,inconclusive: 25.1%
12,COc1ccc2c(c1)c(CC(=O)OCC(N)=O)c(C)n2C(=O)c1ccc(Cl)cc1,inactive: 5.53%
13,Cc1ccc(S(=O)(=O)N[C@H]2CC[C@H](CCn3cc(C4(O)CCCC4)nn3)O[C@@H]2CO)cc1,inconclusive: 29.8%
14,CCCC#Cc1cnc2c(c1)C(=O)N([C@H](C)CO)C[C@@H](C)[C@@H](CN(C)C(=O)NC1CCCC1)O2,active: 45.3%
15,COCC(=O)N(Cc1cc2cccc(C)c2[nH]c1=O)c1ccccc1,inconclusive: 29.8%
16,CC1=NN(C(N)=S)C(=O)C1N=Nc1ccccc1Cl (stereo unspecified),inconclusive: 25.6%
17,O=C(Nc1ccccc1Cl)c1sccc1-c1ccccc1,inactive: -6.73%
18,CCN(CC(=O)Nc1cc(Cl)ccc1C)C(=O)c1oc2ccc(OC)cc2c1C,inconclusive: 36.5%
19,COc1ccccc1NC(=O)N[C@@H]1CC[C@H](CCn2cc(-c3ccccc3OC)nn2)O[C@H]1CO,inconclusive: 44.3%
20,COc1cccc(Nc2nc(C(N)CO)cs2)n1 (stereo unspecified),inactive: 6.12%
21,CCN(CC)C(=O)C1CCN(Cc2cn(C)nc2-c2ccc(Oc3ccccc3)cc2)CC1,inactive: -3.05%
22,CNC[C@H]1Oc2c(NC(=O)Nc3ccc4c(c3)OCO4)cccc2C(=O)N([C@H](C)CO)C[C@H]1C,inconclusive: 33.6%
23,CN(CC(=O)Nc1cccc(F)c1)C(=O)c1ccc(N2CCOCC2)c([N+](=O)[O-])c1,inconclusive: 27.5%
